The text below walks through data of article doi:10.1101/2024.01.05.574302 (bioRxiv, 2024).

No constants are given. Whether binding was seen depends on the method and setting. In cells and extracts the contact can be indirect. A yes stands for co-enrichment or nearness to the bait. Other partners may have been found. A no says only that the protein was not detected with the bait. Where a sequence is shown, tags or fusion partners need not be part of it.

This experiment concerns the target T1, gAnkB (aa. 1476-1727) fragment of the neurospecific domain, Trx-His6-3×StrepII fusion (human) (UniProt Q01484).
T1 sequence: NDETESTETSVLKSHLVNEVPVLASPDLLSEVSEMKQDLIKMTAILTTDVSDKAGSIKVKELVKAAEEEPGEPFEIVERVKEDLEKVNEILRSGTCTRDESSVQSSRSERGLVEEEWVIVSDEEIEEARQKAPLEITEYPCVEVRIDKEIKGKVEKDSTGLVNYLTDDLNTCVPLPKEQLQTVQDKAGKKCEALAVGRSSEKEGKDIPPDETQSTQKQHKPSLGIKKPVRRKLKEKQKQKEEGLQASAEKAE
Kind of experiment: affinity purification with mass spectrometry.

For the substance “ATP1A2 (endogenous, mouse brain) (from UniProt Q6PIE5 1-1020)”, the binding result is “no binding”.
